These results are taken from publication PMC12681942.

The chains behind the UniProt entries cited, without tags or fusion partners. Residues count along the entry.
UniProt P35222: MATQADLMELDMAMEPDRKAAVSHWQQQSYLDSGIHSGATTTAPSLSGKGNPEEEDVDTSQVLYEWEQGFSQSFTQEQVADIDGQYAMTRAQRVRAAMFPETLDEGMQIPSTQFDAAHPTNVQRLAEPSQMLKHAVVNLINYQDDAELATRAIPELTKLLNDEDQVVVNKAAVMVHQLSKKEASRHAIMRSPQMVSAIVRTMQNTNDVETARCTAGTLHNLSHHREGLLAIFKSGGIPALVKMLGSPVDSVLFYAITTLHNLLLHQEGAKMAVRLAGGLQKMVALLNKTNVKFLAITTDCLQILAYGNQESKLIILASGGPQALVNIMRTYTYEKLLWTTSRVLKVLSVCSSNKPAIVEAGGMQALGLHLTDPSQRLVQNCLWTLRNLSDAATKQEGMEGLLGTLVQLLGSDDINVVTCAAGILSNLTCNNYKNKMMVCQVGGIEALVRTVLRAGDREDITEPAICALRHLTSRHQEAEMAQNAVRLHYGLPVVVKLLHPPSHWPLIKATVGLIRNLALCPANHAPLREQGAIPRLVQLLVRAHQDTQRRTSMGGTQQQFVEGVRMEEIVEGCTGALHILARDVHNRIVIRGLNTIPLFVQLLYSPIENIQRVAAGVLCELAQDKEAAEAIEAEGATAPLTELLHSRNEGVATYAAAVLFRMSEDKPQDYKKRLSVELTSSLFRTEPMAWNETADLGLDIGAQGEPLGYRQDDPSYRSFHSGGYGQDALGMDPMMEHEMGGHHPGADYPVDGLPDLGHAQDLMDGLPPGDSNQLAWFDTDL
UniProt Q14517, residues 22-4588: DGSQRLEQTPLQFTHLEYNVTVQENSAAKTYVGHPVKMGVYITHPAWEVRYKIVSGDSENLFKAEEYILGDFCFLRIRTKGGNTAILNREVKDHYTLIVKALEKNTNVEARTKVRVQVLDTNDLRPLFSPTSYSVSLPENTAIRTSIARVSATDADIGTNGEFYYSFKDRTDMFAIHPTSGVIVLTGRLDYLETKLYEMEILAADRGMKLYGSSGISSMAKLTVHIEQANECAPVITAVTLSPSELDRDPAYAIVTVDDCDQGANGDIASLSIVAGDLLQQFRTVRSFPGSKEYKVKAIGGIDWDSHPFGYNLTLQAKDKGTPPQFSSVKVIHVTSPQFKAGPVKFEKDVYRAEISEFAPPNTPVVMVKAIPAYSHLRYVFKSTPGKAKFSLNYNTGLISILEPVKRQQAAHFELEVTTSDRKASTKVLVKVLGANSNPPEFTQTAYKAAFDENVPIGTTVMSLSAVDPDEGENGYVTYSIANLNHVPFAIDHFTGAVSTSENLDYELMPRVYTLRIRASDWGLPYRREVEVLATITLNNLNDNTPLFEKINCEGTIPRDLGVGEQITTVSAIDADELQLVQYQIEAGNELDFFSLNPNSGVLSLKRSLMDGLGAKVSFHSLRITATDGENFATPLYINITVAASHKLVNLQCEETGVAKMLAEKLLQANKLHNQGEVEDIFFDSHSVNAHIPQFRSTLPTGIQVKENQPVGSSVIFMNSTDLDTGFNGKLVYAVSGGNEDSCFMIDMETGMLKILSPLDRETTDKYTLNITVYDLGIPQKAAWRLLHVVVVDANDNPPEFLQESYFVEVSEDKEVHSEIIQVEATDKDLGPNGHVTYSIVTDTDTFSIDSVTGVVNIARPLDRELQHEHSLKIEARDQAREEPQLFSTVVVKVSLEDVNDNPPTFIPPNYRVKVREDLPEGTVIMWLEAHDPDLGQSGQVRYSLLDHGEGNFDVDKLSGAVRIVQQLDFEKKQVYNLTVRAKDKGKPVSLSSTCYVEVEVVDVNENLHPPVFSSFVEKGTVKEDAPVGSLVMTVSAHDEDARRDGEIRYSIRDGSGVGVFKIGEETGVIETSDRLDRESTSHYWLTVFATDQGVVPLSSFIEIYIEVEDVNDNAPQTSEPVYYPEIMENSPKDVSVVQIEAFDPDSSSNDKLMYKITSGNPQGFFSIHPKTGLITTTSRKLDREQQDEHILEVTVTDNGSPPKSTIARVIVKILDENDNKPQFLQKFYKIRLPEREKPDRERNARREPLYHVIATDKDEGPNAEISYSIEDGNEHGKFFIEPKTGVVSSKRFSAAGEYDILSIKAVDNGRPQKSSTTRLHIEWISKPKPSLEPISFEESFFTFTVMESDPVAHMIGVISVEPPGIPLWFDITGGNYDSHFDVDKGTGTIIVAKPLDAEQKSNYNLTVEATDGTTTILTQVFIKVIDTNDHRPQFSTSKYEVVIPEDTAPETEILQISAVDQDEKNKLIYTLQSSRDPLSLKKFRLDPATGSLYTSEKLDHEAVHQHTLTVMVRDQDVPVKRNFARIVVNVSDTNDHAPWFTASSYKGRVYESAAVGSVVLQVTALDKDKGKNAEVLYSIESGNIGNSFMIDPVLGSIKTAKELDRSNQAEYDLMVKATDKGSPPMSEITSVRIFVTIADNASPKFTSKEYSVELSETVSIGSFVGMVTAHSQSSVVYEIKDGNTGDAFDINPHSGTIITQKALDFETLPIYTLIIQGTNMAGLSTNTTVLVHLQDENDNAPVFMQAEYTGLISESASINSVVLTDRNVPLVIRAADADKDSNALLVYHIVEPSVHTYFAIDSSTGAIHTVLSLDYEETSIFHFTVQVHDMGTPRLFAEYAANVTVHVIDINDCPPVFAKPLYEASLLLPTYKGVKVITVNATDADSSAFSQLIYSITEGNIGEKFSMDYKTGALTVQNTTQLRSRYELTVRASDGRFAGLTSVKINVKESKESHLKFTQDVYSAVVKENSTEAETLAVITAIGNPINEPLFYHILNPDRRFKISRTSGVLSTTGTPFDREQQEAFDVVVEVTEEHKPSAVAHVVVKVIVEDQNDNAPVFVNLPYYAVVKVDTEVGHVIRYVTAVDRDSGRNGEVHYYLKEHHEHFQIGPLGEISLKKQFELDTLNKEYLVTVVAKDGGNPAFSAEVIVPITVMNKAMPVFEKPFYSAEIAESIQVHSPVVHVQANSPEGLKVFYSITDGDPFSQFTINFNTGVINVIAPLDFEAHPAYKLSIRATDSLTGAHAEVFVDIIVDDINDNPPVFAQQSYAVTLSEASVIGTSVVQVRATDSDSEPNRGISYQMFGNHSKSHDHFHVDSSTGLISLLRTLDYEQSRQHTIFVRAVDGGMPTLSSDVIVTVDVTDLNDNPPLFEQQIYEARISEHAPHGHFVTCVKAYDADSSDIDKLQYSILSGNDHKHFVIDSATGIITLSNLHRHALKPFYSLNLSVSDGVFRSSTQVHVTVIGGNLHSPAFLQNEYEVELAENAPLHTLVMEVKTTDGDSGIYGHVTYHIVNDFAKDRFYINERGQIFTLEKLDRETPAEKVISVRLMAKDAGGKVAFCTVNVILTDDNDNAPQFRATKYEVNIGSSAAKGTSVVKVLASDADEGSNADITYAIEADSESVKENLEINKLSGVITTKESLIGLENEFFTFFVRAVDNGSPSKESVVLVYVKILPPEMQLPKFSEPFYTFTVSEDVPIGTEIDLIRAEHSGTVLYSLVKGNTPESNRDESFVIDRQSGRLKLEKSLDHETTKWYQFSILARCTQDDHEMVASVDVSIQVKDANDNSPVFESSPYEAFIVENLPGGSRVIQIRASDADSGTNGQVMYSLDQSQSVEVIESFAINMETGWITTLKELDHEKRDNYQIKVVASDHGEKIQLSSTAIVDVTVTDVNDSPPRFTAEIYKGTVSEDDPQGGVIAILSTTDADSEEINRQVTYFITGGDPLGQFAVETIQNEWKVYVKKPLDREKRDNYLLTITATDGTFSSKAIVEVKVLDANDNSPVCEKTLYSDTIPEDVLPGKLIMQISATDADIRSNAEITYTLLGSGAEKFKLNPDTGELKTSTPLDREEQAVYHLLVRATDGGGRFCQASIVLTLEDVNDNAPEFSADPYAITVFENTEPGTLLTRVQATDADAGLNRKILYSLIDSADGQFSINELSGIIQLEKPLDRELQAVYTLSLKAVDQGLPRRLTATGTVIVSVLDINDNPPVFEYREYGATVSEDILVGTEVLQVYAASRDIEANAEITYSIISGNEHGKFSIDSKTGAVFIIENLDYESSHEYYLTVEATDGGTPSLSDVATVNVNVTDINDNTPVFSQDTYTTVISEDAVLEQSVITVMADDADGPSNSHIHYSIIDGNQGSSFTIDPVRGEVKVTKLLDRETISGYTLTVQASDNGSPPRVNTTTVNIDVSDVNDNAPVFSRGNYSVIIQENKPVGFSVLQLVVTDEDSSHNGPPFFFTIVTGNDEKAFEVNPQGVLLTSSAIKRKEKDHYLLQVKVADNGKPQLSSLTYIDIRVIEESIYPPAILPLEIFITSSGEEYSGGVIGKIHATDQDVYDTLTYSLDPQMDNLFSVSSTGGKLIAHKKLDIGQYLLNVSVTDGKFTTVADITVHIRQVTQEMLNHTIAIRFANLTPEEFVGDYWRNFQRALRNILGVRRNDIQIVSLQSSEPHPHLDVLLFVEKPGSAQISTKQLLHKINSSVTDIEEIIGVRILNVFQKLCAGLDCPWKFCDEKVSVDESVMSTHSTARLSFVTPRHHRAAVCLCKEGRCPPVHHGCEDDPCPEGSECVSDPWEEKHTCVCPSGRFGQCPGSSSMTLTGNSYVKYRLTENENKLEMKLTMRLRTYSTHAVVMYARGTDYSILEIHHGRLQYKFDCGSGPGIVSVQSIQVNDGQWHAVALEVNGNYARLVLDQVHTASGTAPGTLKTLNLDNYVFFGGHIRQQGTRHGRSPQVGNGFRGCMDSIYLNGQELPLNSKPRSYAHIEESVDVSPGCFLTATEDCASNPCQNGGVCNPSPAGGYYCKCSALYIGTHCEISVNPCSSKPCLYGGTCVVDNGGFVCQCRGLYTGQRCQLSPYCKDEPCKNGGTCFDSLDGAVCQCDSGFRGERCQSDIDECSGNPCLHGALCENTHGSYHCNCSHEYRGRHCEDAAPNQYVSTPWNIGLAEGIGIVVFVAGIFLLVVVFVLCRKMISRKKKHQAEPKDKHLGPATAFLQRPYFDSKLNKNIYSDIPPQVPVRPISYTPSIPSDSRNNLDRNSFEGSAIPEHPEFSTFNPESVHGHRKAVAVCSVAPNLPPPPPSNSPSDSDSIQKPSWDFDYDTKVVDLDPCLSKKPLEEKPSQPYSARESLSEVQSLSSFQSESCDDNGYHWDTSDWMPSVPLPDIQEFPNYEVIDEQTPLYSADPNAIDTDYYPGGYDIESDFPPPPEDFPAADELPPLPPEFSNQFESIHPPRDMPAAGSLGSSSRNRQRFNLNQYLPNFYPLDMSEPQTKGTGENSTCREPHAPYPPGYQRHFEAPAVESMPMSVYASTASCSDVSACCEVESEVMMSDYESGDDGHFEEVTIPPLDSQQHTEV

This experiment has as its target β-catenin (CTNNB1) (human (endogenous in MCF-7)) (UniProt P35222). The experiment is described as follows: co-IP; MCF-7 cell lysate (cell lysis buffer for Western and IP); CTNNB1 antibody on Protein A/G magnetic beads, incubated with lysate overnight at 4 °C; Western blotting; IgG as negative control. Background: In western blotting, separated proteins are transferred to a membrane and probed.

No constants are given. Whether binding was seen depends on the method and setting. In cells and extracts the contact can be indirect. Some entries that bind do so weakly or less than the wild type.

With “FAT Atypical Cadherin 1 (FAT1) (from UniProt Q14517 22-4588)”, the binding result is “binds”.
